Values of other authors, collected in patent US11890293B2, “Synthetic composition for treating metabolic disorders” (GLYCOM A/S, priority 2014, dated 2024).
At least one compound was matched to its structure with a doubt left.

Tested on: type 2 diabetes-model mice
Conditions: oral doses

## CC(=O)N[C@H]1[C@H]([C@H](O)[C@H](O)CO)OC(O)(C(=O)O)C[C@@H]1O (stereo partly shown) [sialic acid, reference compound]
  insulin secretion: promote insulin secretion
